# Experimental data published in the supplement of paper PMC10849652.
# Sequences of proteins named here, by UniProt entry; tags and fusion partners are left off. A change or cut given only in a name is not applied to a line headed by its entry.
# UniProt Q15257: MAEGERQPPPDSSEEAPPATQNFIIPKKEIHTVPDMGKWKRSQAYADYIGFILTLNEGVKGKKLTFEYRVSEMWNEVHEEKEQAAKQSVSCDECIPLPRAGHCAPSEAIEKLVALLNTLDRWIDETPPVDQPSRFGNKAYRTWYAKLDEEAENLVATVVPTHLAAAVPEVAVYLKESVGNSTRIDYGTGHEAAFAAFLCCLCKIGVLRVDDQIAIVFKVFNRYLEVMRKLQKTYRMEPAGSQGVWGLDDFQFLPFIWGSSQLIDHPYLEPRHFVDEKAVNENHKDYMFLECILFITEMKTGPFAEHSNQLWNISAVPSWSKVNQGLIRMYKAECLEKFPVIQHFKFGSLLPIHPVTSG
# UniProt P29350: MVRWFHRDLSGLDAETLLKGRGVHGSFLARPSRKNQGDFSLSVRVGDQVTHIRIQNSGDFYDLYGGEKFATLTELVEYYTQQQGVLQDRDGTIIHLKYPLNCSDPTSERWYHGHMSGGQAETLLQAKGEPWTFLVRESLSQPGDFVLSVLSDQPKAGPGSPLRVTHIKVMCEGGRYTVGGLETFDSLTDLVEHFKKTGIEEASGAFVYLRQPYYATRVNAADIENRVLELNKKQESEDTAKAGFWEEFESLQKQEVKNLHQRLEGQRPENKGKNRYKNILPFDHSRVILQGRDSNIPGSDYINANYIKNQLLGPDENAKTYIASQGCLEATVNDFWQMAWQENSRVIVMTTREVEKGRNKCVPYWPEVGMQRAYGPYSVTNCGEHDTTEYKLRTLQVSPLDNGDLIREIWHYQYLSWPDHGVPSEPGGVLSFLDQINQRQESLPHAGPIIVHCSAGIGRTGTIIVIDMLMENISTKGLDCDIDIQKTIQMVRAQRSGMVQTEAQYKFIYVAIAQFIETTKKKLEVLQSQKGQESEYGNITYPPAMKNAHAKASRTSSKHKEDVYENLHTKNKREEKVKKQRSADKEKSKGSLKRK
# UniProt Q9BT73: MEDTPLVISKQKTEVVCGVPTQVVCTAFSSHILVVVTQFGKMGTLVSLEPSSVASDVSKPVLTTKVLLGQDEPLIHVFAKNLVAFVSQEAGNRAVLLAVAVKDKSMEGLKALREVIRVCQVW
# UniProt Q00577: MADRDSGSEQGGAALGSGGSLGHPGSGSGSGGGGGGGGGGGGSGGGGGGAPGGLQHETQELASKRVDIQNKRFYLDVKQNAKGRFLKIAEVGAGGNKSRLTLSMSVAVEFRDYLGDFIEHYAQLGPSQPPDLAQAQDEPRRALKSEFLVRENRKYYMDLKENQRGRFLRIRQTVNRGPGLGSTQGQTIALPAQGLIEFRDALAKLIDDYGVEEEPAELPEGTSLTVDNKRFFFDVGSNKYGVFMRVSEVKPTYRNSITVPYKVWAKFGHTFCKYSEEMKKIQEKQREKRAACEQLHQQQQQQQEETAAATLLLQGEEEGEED
# UniProt O95997: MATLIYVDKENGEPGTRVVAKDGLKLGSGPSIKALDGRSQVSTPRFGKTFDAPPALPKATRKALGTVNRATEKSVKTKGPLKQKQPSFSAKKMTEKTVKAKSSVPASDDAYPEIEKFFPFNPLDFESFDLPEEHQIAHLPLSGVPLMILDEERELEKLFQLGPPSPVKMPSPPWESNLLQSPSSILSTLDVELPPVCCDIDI
# UniProt Q96PZ0: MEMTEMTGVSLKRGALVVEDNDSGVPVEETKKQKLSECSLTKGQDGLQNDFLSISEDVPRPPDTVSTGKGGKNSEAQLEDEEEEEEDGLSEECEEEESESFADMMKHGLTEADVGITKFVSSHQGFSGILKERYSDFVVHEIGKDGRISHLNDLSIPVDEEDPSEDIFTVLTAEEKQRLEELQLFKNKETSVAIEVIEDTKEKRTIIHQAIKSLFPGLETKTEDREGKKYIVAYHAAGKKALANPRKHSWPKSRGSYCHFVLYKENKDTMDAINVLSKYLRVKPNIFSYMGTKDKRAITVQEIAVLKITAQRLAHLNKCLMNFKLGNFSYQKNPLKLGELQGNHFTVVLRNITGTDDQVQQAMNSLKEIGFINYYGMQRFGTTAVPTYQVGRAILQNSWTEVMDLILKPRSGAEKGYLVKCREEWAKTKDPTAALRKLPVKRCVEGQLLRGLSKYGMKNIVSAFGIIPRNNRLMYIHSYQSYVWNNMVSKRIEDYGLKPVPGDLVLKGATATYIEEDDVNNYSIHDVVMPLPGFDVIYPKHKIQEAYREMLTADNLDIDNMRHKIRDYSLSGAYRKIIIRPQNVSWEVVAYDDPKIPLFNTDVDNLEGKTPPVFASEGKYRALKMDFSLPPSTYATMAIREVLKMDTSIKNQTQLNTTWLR
# UniProt Q14997: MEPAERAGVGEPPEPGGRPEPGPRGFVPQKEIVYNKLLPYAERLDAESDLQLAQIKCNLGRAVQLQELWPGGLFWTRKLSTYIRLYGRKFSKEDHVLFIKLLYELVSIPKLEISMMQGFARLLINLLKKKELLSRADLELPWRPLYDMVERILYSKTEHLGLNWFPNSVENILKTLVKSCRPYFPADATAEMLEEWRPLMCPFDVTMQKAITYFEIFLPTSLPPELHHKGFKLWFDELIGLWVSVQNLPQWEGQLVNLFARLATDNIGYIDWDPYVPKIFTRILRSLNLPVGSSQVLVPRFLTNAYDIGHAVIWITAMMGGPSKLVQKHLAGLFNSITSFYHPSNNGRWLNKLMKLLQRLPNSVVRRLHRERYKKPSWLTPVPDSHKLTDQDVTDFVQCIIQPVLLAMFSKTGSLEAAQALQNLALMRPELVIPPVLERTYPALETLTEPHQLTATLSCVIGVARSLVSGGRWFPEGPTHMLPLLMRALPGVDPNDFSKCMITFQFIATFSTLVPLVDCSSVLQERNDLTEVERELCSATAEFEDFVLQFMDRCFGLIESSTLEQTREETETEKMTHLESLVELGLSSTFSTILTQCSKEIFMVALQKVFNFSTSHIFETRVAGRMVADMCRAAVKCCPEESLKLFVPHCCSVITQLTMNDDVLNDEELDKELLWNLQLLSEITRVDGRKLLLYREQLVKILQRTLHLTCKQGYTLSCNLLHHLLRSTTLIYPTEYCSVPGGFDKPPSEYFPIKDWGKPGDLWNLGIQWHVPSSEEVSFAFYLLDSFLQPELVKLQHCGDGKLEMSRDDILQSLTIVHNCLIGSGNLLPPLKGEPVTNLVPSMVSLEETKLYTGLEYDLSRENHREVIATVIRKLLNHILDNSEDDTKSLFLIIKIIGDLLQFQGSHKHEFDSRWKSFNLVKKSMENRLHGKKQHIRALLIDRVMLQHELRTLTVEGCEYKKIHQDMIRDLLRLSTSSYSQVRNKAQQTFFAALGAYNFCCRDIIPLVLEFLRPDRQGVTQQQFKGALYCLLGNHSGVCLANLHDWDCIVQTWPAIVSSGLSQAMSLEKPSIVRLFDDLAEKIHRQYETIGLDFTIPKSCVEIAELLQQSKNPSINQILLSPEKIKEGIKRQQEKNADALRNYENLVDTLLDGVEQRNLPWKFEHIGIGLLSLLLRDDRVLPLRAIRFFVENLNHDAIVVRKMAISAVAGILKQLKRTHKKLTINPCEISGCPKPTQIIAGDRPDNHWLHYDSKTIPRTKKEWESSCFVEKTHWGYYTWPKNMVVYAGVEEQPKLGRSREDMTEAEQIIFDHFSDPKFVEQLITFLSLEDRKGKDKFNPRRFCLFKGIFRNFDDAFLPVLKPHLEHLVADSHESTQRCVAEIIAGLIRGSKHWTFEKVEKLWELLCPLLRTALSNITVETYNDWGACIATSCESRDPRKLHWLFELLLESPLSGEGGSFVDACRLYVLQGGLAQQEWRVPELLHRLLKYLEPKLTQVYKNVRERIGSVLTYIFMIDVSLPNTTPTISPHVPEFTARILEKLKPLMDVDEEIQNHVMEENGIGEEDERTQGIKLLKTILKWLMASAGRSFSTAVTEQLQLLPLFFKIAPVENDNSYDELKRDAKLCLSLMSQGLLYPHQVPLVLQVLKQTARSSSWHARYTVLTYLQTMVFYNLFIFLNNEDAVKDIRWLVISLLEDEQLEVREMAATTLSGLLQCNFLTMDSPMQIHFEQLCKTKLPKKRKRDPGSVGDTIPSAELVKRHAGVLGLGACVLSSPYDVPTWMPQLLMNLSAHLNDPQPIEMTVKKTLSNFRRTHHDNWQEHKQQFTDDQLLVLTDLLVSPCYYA
# UniProt Q96BW5: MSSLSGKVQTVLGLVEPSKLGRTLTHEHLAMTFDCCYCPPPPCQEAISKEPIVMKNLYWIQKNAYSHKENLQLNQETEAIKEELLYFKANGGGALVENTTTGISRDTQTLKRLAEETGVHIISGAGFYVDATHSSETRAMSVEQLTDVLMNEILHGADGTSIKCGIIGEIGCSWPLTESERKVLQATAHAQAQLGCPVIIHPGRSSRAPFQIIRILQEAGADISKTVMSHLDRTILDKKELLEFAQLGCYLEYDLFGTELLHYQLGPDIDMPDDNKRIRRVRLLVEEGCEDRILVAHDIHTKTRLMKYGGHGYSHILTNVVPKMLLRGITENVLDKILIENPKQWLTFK
# UniProt Q86TP1: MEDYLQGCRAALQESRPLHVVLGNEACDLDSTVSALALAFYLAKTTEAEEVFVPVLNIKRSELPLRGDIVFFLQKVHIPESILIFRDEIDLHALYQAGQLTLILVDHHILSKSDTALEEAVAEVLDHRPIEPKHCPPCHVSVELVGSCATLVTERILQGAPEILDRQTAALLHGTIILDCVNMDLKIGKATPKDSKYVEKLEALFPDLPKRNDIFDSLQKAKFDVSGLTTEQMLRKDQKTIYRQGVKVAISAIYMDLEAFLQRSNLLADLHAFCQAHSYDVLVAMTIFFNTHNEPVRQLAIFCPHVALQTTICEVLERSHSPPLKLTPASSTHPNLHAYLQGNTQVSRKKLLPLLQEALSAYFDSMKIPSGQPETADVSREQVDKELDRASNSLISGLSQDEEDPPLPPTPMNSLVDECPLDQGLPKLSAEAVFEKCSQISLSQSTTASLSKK
# UniProt Q14671: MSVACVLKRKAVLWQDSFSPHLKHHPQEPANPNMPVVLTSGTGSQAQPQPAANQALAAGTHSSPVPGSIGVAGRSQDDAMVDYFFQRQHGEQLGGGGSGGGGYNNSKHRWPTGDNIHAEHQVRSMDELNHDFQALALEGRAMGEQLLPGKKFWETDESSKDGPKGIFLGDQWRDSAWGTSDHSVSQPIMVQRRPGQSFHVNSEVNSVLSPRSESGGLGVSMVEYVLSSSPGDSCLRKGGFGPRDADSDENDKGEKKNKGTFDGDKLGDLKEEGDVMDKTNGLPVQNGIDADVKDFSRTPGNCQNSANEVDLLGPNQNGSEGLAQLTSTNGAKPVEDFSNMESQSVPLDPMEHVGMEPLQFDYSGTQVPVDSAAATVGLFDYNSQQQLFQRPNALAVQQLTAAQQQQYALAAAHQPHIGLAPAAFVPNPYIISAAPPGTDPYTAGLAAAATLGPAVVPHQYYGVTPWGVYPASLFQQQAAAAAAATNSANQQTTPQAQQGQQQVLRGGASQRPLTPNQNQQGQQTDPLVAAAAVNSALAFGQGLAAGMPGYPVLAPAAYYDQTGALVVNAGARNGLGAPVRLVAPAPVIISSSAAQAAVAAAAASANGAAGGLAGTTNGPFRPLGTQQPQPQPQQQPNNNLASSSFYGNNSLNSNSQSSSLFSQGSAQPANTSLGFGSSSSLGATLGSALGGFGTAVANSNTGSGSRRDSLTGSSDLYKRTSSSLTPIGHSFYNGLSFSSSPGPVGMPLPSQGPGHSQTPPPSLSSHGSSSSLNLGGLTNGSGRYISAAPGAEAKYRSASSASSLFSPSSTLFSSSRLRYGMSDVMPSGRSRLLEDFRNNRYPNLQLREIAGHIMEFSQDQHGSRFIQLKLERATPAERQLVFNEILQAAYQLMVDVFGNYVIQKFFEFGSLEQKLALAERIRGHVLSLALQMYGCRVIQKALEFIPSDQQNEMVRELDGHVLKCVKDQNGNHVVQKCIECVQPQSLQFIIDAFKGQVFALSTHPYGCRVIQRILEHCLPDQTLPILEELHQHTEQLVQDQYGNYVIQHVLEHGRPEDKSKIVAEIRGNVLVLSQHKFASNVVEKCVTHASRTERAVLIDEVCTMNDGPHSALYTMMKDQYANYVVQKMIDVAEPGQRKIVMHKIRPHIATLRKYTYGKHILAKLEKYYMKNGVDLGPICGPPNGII
# UniProt Q9Y3E5: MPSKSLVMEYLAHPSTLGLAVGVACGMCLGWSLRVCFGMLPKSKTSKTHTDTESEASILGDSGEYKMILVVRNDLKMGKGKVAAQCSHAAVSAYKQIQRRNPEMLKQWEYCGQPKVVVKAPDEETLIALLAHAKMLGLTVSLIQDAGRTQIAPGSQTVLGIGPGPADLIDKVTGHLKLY
# UniProt P28072: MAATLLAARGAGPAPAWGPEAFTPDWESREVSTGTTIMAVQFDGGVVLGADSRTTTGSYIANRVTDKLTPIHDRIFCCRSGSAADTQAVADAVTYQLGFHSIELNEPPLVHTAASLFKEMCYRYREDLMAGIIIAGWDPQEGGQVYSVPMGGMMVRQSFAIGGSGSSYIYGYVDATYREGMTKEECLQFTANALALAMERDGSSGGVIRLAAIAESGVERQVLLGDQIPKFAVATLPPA
# This is one part of the list.
# Assays:
# Assay in all cases: log2 fold change, soluble protein after heating vs DMSO (PISA); higher = thermal stabilisation; K562 lysate, 10 uM; active = over 0.2 and 3.5 SD of the protein, either way, in both replicates (recomputed)
# vemurafenib = compound: CCCS(=O)(=O)Nc1ccc(F)c(C(=O)c2c[nH]c3ncc(-c4ccc(Cl)cc4)cc23)c1F [vemurafenib]
# Method in brief: (§1)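 K562 pellets were dounce-homogenised in PBS pH 7.4 with 1 mM MgCl2, and the crude extract at 1 mg/mL protein was treated with 10 μM compound for 30 min. Aliquots were heated for 3 min across 48°C-58°C, pooled, and brought to 0.5% NP-40 at 4°C; soluble protein was the supernatant after 21,000xg for 90 min. Soluble protein was quantified by TMTpro 16plex LC-MS/MS with channel sums equalised, and reported as log2 fold change in thermal stability against DMSO controls, with values from duplicates.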
# [1] = compound: CCCS(=O)(=O)Nc1ccc(F)c(C(=O)c2c[nH]c3ncc(Cl)cc23)c1F
# Method in brief: as §1
# barasertib = compound: CCN(CCCOc1ccc2c(Nc3cc(CC(=O)Nc4cccc(F)c4)[nH]n3)ncnc2c1)CCOP(=O)(O)O [barasertib]
# Method in brief: as §1
# [2] = compound: CC[C@@H]1C(=O)N(C)c2cnc(Nc3ccc(C(=O)NC4CCN(C)CC4)cc3OC)nc2N1C1CCCC1
# Method in brief: as §1
# volasertib = compound: CC[C@@H]1C(=O)N(C)c2cnc(Nc3ccc(C(=O)N[C@H]4CC[C@H](N5CCN(CC6CC6)CC5)CC4)cc3OC)nc2N1C(C)C [volasertib]
# Method in brief: as §1
# [3] = compound: CCn1c(C(=O)N(C2CC2)C2CC2)cc2c3c(ncn3C)c(Nc3cc(C)n(C)n3)nc21
# Method in brief: as §1
# [4] = compound: CCn1cc(-c2ccnc3[nH]c(-c4cccc(CN(C)C)c4)cc23)c(-c2ccc(NC(=O)N(C)C)cc2)n1
# Method in brief: as §1
# [5] = compound: CN1CCC(CNc2ccc3ncc(-c4cccc(OC(F)(F)F)c4)n3n2)CC1
# Method in brief: as §1
# saracatinib = compound: CN1CCN(CCOc2cc(OC3CCOCC3)c3c(Nc4c(Cl)ccc5c4OCO5)ncnc3c2)CC1 [saracatinib]
# Method in brief: as §1
# sotrastaurin = compound: CN1CCN(c2nc(C3=C(c4c[nH]c5ccccc45)C(=O)NC3=O)c3ccccc3n2)CC1 [sotrastaurin]
# Method in brief: as §1
# alvocidib = compound: CN1CC[C@H](c2c(O)cc(O)c3c(=O)cc(-c4ccccc4Cl)oc23)[C@H](O)C1 [alvocidib]
# Method in brief: as §1
# Tubastatin A = compound: CN1CCc2c(c3ccccc3n2Cc2ccc(C(=O)NO)cc2)C1 [Tubastatin A]
# Method in brief: as §1
# [6] = compound: CNC(=O)C1=CC=CC=C1NC2=NC(=NC=C2Cl)NC3=C(C=C(C=C3)N4CCOCC4)OC
# Method in brief: as §1
# defactinib = compound: CNC(=O)c1ccc(Nc2ncc(C(F)(F)F)c(NCc3nccnc3N(C)S(C)(=O)=O)n2)cc1 [defactinib]
# Method in brief: as §1
# [7] = compound: CNc1nc(-c2ccc3c(N)n[nH]c3c2)cc(N2C[C@@H](C(=O)NC3CCCCC3)CC[C@H]2C)n1
# Method in brief: as §1
# encorafenib = compound: COC(=O)N[C@@H](C)CNc1nccc(-c2cn(C(C)C)nc2-c2cc(Cl)cc(NS(C)(=O)=O)c2F)n1 [encorafenib]
# Method in brief: as §1
# [8] = compound: COC(=O)[C@H](CCSC)NC(=O)C1=C(C=C(C=C1)NC[C@H](CS)N)C2=CC=CC=C2
# Method in brief: as §1
# alisertib = compound: COc1cc(Nc2ncc3c(n2)-c2ccc(Cl)cc2C(c2c(F)cccc2OC)=NC3)ccc1C(=O)O [alisertib]
# Method in brief: as §1
# [9] = compound: COc1cc2nc(-c3cc(F)ccc3O)nc(N[C@@H]3CNC[C@H]3C(C)(C)O)c2cc1OC
# Method in brief: as §1
# gefitinib = compound: COc1cc2ncnc(Nc3ccc(F)c(Cl)c3)c2cc1OCCCN1CCOCC1 [gefitinib]
# Method in brief: as §1
Target,log2 fold change (vemurafenib),log2 fold change [1],log2 fold change (barasertib),log2 fold change [2],log2 fold change (volasertib),log2 fold change [3],log2 fold change [4],log2 fold change [5],log2 fold change (saracatinib),log2 fold change (sotrastaurin),log2 fold change (alvocidib),log2 fold change (Tubastatin A),log2 fold change [6],log2 fold change (defactinib),log2 fold change [7],log2 fold change (encorafenib),log2 fold change [8],log2 fold change (alisertib),log2 fold change [9],log2 fold change (gefitinib)
PSMD4 (UniProt P55036),inactive: -0.002,inactive: 0.004,inactive: -0.038,inactive: 0.059,inactive: 0.001,inactive: -0.01,inactive: 0.046,inactive: 0.026,inactive: 0.007,inactive: 0.014,inactive: 0.005,inactive: 0.004,inactive: -0.013,inactive: 0.008,inactive: 0.036,inactive: 0.007,inactive: -0.017,inactive: -0.024,inactive: -0.005,inactive: -0.034
PTPA isoform 2 (UniProt Q15257),inactive: 0.013,inactive: -0.01,inactive: -0.002,inactive: -0.008,inactive: 0.015,inactive: -0.024,inactive: -0.108,inactive: 0.051,inactive: 0.015,inactive: 0.007,inactive: -0.037,inactive: 0.027,inactive: -0.027,inactive: -0.013,inactive: -0.059,inactive: -0.014,inactive: -0.031,inactive: -0.013,inactive: 0.004,inactive: -0.02
PTPN6 isoform 4 (UniProt P29350),inactive: 0.02,inactive: -0.089,inactive: 0.081,active: -0.487,inactive: 0.014,inactive: 0.026,inactive: -0.038,inactive: -0.024,inactive: -0.046,inactive: 0.006,inactive: -0.12,inactive: -0.185,inactive: 0.037,inactive: -0.015,inactive: -0.008,inactive: 0.028,inactive: 0.261,inactive: -0.218,inactive: -0.034,inactive: 0.045
PRRC2A (UniProt P48634),inactive: -0.006,inactive: 0.008,inactive: -0.013,inactive: 0.107,inactive: 0.012,inactive: 0.013,inactive: 0.05,inactive: 0.008,inactive: 0.049,inactive: -0.014,inactive: -0.006,inactive: -0.014,inactive: -0.001,inactive: 0.046,inactive: -0.012,inactive: 0.048,inactive: -0.044,inactive: 0.016,inactive: 0.005,inactive: -0.008
PSMG3 (UniProt Q9BT73),inactive: 0.012,inactive: 0.016,inactive: 0.016,inactive: 0.033,inactive: 0.018,inactive: 0.003,inactive: 0.105,inactive: -0.027,inactive: -0.037,inactive: -0.012,inactive: 0.047,inactive: 0.042,inactive: 0.013,inactive: 0.025,inactive: 0.075,inactive: -0.025,inactive: -0.013,inactive: 0.017,inactive: -0.009,inactive: -0.03
PURA (UniProt Q00577),inactive: -0.124,inactive: 0.007,inactive: -0.067,inactive: 0.122,inactive: 0.031,inactive: -0.011,inactive: 0.244,inactive: -0.014,inactive: 0.016,inactive: -0.027,inactive: 0.045,inactive: 0.091,inactive: -0.001,inactive: 0.026,inactive: -0.015,inactive: 0.024,inactive: -0.014,inactive: 0.007,inactive: -0.005,inactive: -0.012
PTTG1 (UniProt O95997),inactive: -0.033,inactive: 0.043,inactive: -0.028,inactive: 0.043,inactive: -0.012,inactive: 0.029,inactive: 0.053,inactive: -0.124,inactive: 0.045,inactive: -0.039,inactive: -0.024,inactive: -0.117,inactive: 0.042,inactive: 0.087,inactive: -0.097,inactive: 0.117,inactive: 0.007,inactive: -0.022,inactive: -0.05,inactive: 0.059
PUS7 isoform 2 (UniProt Q96PZ0),inactive: 0.002,inactive: 0.009,inactive: 0.001,inactive: 0.047,inactive: 0.013,inactive: -0.027,inactive: -0.024,inactive: 0.031,inactive: -0.003,inactive: 0.005,inactive: -0.001,inactive: 0.022,inactive: 0.012,inactive: 0.004,inactive: 0.038,inactive: -0.005,inactive: 0.012,inactive: -0.023,inactive: 0.004,inactive: -0.005
PSME4 (UniProt Q14997),inactive: 0.044,inactive: 0.001,inactive: 0.038,inactive: -0.04,inactive: -0.056,inactive: 0.023,inactive: -0.169,inactive: 0.07,inactive: 0.023,inactive: 0.031,inactive: -0.039,inactive: -0.076,inactive: 0.014,inactive: 0.029,inactive: 0.013,inactive: 0.038,inactive: 0.017,inactive: 0.023,inactive: -0.01,inactive: -0.002
PTER (UniProt Q96BW5),inactive: -0.029,inactive: -0.026,inactive: -0.007,inactive: -0.016,inactive: 0.033,inactive: -0.009,inactive: -0.023,inactive: 0.087,inactive: -0.016,inactive: 0.036,inactive: -0.05,inactive: 0.017,inactive: -0.021,inactive: -0.003,inactive: 0.018,inactive: -0.036,inactive: -0.108,inactive: -0.012,inactive: 0.028,inactive: 0.01
PRUNE1 (UniProt Q86TP1),inactive: 0.036,inactive: 0.017,inactive: 0.013,inactive: -0.023,inactive: -0.002,inactive: 0,inactive: 0.011,inactive: -0.013,inactive: -0.001,inactive: -0.012,inactive: -0.009,inactive: -0.029,inactive: 0.02,inactive: 0.008,inactive: -0.046,inactive: 0,inactive: 0.033,inactive: -0.017,inactive: -0.009,inactive: 0.008
PUM1 isoform 3 (UniProt Q14671),inactive: -0.07,inactive: 0.013,inactive: 0.068,inactive: 0.031,inactive: -0.063,inactive: 0.03,inactive: 0.045,inactive: -0.084,inactive: 0.039,inactive: 0.016,inactive: 0.02,inactive: -0.033,inactive: -0.017,inactive: 0.017,inactive: -0.023,inactive: 0.008,inactive: 0,inactive: 0.031,inactive: 0.017,inactive: -0.014
PTRH2 (UniProt Q9Y3E5),inactive: 0.01,inactive: -0.002,inactive: -0.027,inactive: 0.065,inactive: -0.022,inactive: 0.004,inactive: 0.145,inactive: 0.003,inactive: -0.021,inactive: -0.047,inactive: 0.109,inactive: 0.065,inactive: 0.053,inactive: 0.049,inactive: 0.072,inactive: -0.001,inactive: -0.029,inactive: -0.087,inactive: 0.007,inactive: -0.051
PSMD1 (UniProt Q99460),inactive: -0.001,inactive: 0.029,inactive: -0.019,inactive: 0.005,inactive: -0.013,inactive: -0.012,inactive: -0.037,inactive: -0.005,inactive: -0.017,inactive: 0.025,inactive: 0.018,inactive: -0.027,inactive: -0.001,inactive: 0.001,inactive: 0.005,inactive: -0.01,inactive: 0.043,inactive: 0.007,inactive: -0.001,inactive: -0.005
PSMB6 (UniProt P28072),inactive: -0.049,inactive: -0.004,inactive: 0.032,inactive: 0.024,inactive: 0.021,inactive: 0.012,inactive: -0.082,inactive: 0.049,inactive: -0.005,inactive: 0.07,inactive: -0.025,inactive: 0.017,inactive: 0.01,inactive: -0.054,inactive: -0.055,inactive: 0.003,inactive: -0.009,inactive: -0.028,inactive: -0.011,inactive: 0.027
PRPF8 (UniProt Q6P2Q9),inactive: -0.008,inactive: 0.005,inactive: 0.021,inactive: -0.007,inactive: -0.025,inactive: 0.026,inactive: -0.059,inactive: -0.036,inactive: 0.012,inactive: 0.032,inactive: 0.002,inactive: -0.035,inactive: -0.008,inactive: -0.02,inactive: -0.013,inactive: 0.029,inactive: 0.011,inactive: 0.005,inactive: -0.005,inactive: 0.01

# For convenience, some entries already given:
Target,log2 fold change (vemurafenib),log2 fold change [1],log2 fold change (barasertib),log2 fold change [2],log2 fold change (volasertib),log2 fold change [3],log2 fold change [4],log2 fold change [5],log2 fold change (saracatinib),log2 fold change (sotrastaurin),log2 fold change (alvocidib),log2 fold change (Tubastatin A),log2 fold change [6],log2 fold change (defactinib),log2 fold change [7],log2 fold change (encorafenib),log2 fold change [8],log2 fold change (alisertib),log2 fold change [9],log2 fold change (gefitinib)
PRUNE1 (UniProt Q86TP1),inactive: 0.036,inactive: 0.017,inactive: 0.013,inactive: -0.023,inactive: -0.002,inactive: 0,inactive: 0.011,inactive: -0.013,inactive: -0.001,inactive: -0.012,inactive: -0.009,inactive: -0.029,inactive: 0.02,inactive: 0.008,inactive: -0.046,inactive: 0,inactive: 0.033,inactive: -0.017,inactive: -0.009,inactive: 0.008
PUM1 isoform 3 (UniProt Q14671),inactive: -0.07,inactive: 0.013,inactive: 0.068,inactive: 0.031,inactive: -0.063,inactive: 0.03,inactive: 0.045,inactive: -0.084,inactive: 0.039,inactive: 0.016,inactive: 0.02,inactive: -0.033,inactive: -0.017,inactive: 0.017,inactive: -0.023,inactive: 0.008,inactive: 0,inactive: 0.031,inactive: 0.017,inactive: -0.014
PTRH2 (UniProt Q9Y3E5),inactive: 0.01,inactive: -0.002,inactive: -0.027,inactive: 0.065,inactive: -0.022,inactive: 0.004,inactive: 0.145,inactive: 0.003,inactive: -0.021,inactive: -0.047,inactive: 0.109,inactive: 0.065,inactive: 0.053,inactive: 0.049,inactive: 0.072,inactive: -0.001,inactive: -0.029,inactive: -0.087,inactive: 0.007,inactive: -0.051
